Test results published in PubChem BioAssay AID504467 (National Center for Advancing Translational Sciences (NCATS), 2011).
The whole screen tested about 330,000 compounds, of which about 7,700 (2.3%) were called active. The shares of active, inactive and inconclusive entries below differ from those in the screen. Calls come from the whole dose curve; as a rule, active = well fitted inhibition curve with a large enough effect; inconclusive = small, poorly fitted or top-dose-only effect, or effect the other way; inactive = flat fitted curve, though single readings scatter. Where the call is inconclusive, the potency comes from a doubtful curve fit.

Assay: qHTS screen for small molecules that inhibit ELG1-dependent DNA repair in human embryonic kidney (HEK293T) cells expressing luciferase-tagged ELG1; note: nearly all actives have a fitted effect of over 55% in size
Settings: HEK293T ELG1-luciferase reporter, luminescence, 16 h, DNA damage induced by 5-fluorouridine; series mostly up to 46.1 µM
How it was run: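 Quantitative HTS, concentration-response format. 2,000 cells/well co-treated with 5-fluorouridine and compound, 16 hr in 5% CO2 at 37 °C; ONE-Glo luminescence read after 30 min.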
Potency is the fitted concentration of half-maximal effect.

| Structure (SMILES) | Potency |
| --- | --- |
| CCCS(=O)(=O)c1ccc(COC(=O)c2cccc(NC(=O)C(C)C)c2)cc1 | inconclusive: 18.3 µM [inhibitor, partial curve] |
| CCc1ccc(OCCn2ccnc2)cc1 | inactive |
| Cc1cc(Cl)ccc1OCC(=O)NCCOc1nc(N2CCOCC2)nc(N2CCOCC2)n1 | active: 10.3 µM |
| CC(C)(C)c1ccc(C(=O)NC2CCN(Cc3ccccc3)CC2)cc1 | inactive |
| O=C(Cc1ccc(S(=O)(=O)N2CCOCC2)s1)Oc1ccc(F)cc1 | inconclusive: 23.1 µM [activator, single point] |
| CCOC(=O)C(C)Oc1cccc2c(=O)n(CC(=O)Nc3ccc4c(c3)OCCO4)ccc12 (configuration not stated) | inconclusive: 29.1 µM [activator, single point] |
| Cc1cccc(OCC(=O)Nc2ccccc2N2CCCC2)c1C | inactive |
| Cc1cc(N2CCC(C)CC2)n2ncc(-c3ccccc3)c2n1 | inconclusive: 0.82 µM [activator, partial curve] |
| CCCNC(=O)C(Cc1ccccc1F)NC(=O)c1ccc(C#N)cc1 (configuration not stated) | inconclusive: 2.91 µM [activator, full curve, poor fit] |
| CC1(C)N=C(N)N=C(N)N1c1ccc(Oc2ccc(Cl)cc2)c(Cl)c1 | inconclusive: 11.6 µM [inhibitor, partial curve, poor fit] |
| COc1ccc(NC(=O)c2oc3ccccc3c2NC(=O)COc2ccccc2OC)c(OC)c1 | inconclusive: 2.06 µM [inhibitor, partial curve, poor fit] |
| O=[N+]([O-])c1ccc(N2CCN(S(=O)(=O)c3ccccc3)CC2)cc1 | inconclusive: 20.6 µM [inhibitor, single point] |
| CN1OC(COC(=O)c2ccccc2)CC1c1ccccc1 (configuration not stated) | inactive |
| O=C(CSc1nc2ccccc2c(=O)n1-c1ccccc1Cl)NC1CCS(=O)(=O)C1 (configuration not stated) | inactive |
| CC1C(=O)N(Cc2ccc([N+](=O)[O-])cc2)c2ccccc2N1C(=O)c1c(F)cccc1F (configuration not stated) | inactive |
| O=C(Nc1ccccc1)/C(=C/c1ccc2c(c1)OCO2)NC(=O)c1ccco1 | inactive |
| Cc1c(C(=O)Nc2nonc2-c2ccc(F)cc2)oc2ccc(F)cc12 | inconclusive: 29.1 µM [inhibitor, single point] |
| CN1C(C(=O)NCc2cccc(Br)c2)CC2Cn3c(nc4cc(Cl)c(Cl)cc43)C21 (configuration not stated) | inactive |
| O=C1CCCC2=C1C(c1ccsc1)CC(=O)N2c1nnc(SCc2ccccc2)s1 (configuration not stated) | inactive |
| COc1cc(NC(=O)c2ccccc2NS(=O)(=O)c2ccc(Cl)s2)cc(OC)c1 | inconclusive: 13 µM [inhibitor, partial curve, poor fit] |
| CCOC(=O)c1cnc(SCCN2CCOCC2)nc1N | inconclusive: 23.1 µM [activator, single point] |
| Cc1ccc(/C=C2\SC(=S)N(CCCC(=O)Nc3ccccn3)C2=O)cc1 | inconclusive: 29.1 µM [inhibitor, partial curve, poor fit] |
| COc1cccc(NC(=O)COc2coc(CN3CCc4ccccc4C3)cc2=O)c1 | inactive |
| O=C(CCc1nc2ccccc2c(=O)[nH]1)OCC(=O)N1CCc2ccccc21 | inactive |

| Structure (SMILES) | Potency |
| --- | --- |
| Cc1cc(/C=N/NC(=O)C(=O)NCc2ccccn2)c(C)n1-c1ccccc1 | inconclusive: 16.4 µM [activator, single point] |
| COc1cccc(-c2csc(NC(C)=O)n2)c1 | inconclusive: 9.2 µM [activator, partial curve] |
| CCN(CC)C(=O)[C@H]1CC(CC(=O)NC/C=C(\C)CCC=C(C)C)C(=O)N2CCc3c([nH]c4ccc(OC)cc34)[C@]12C (some centres not stated) | inconclusive: 18.3 µM [inhibitor, single point] |
| CCOC(=O)c1[nH]c2ccccc2c1NC(=O)CC(C)C | inactive |
| CC(C)(C)c1cc(=O)n2c(C#N)c(C#N)nc2[nH]1 | inactive |
| Cn1c(=O)c(C(=O)CN2CCN(S(=O)(=O)c3ccccc3)CC2)c(N)n(Cc2ccccc2)c1=O | inconclusive: 11.6 µM [inhibitor, partial curve] |
| Cc1c(C(=O)N/N=C/c2ccc(-c3ccccc3[N+](=O)[O-])o2)sc(N)c1C#N | inconclusive: 2.31 µM [inhibitor, partial curve] |
| CCC(C)C(NC(=O)c1ccc(Cl)cc1)C(=O)Nc1cccnc1 (configuration not stated) | inconclusive: 23.1 µM [activator, single point] |
| CC(=O)Nc1ccc(NC(=O)C(C)OC(=O)CCc2nc3ccccc3s2)cc1 (configuration not stated) | inactive |
| Cc1noc(C)c1COc1ccc(C(=O)OCC(=O)Nc2ccc(S(N)(=O)=O)cc2)cc1 | inactive |
| CC(C(=O)Nc1ccccc1-c1ccccc1)N1CCN(Cc2ccccc2)CC1 (configuration not stated) | inactive |
| Cc1nnc2sc(SCc3cccc(Cl)c3)nn2c1=O | inconclusive: 16.4 µM [activator, single point] |
| COc1cccc2cc3c(=O)oc4ccccc4c3nc12 | inconclusive: 18.4 µM [activator, single point] |
| COc1ccccc1Nc1ccc(C(=O)NC2CCCCC2)cn1 | inactive |
| CSc1ccccc1OCc1cc(C(=O)NC2CCc3ccccc32)no1 (configuration not stated) | inactive |
| CCOc1ccc(C(C)=O)cc1COC(=O)c1cc([N+](=O)[O-])ccc1N1CCOCC1 | inconclusive: 20.6 µM [inhibitor, single point] |
| O=C(NCCc1ccccc1)C(=O)NCC1CCCN1S(=O)(=O)c1cccs1 (configuration not stated) | inactive |
| COc1cc(C(=O)Nc2ccn(C)n2)ccc1OC(F)F | inconclusive: 23.1 µM [activator, partial curve] |
| COc1ccc(OC)c(-c2nc(C(=O)NCCCN3CCOCC3)cc3c2[nH]c2ccccc23)c1 | inactive |
| COCCNC(=O)C1CC(c2ccc([N+](=O)[O-])cc2)=NO1 (configuration not stated) | inactive |
| Cc1ccc(S(=O)(=O)NCCC(=O)Nc2cccc(Cl)c2)cc1 | inactive |
| CCN(CC(=O)Nc1c(F)cccc1F)C(=O)CCN1C(=O)C2CCCCC2C1=O (configuration not stated) | inactive |
| Cc1ccc(NC(=O)[C@H](C)NC(=O)C2CCN(C(=O)[C@H](CC(C)C)NC(=O)OC(C)(C)C)CC2)cc1 | inactive |
| COc1ccc(-c2cn3ccccc3n2)cc1OC | inconclusive: 6.51 µM [activator, partial curve] |

An excerpt of these results, as tab-separated lines:
Structure (SMILES)	Potency
CCN(CC(=O)Nc1c(F)cccc1F)C(=O)CCN1C(=O)C2CCCCC2C1=O (configuration not stated)	inactive
Cc1ccc(NC(=O)[C@H](C)NC(=O)C2CCN(C(=O)[C@H](CC(C)C)NC(=O)OC(C)(C)C)CC2)cc1	inactive

(cont.)

| Structure (SMILES) | Potency |
| --- | --- |
| COc1ccc(C(=O)OC/C(O)=C(\C#N)c2nc3ccccc3[nH]2)cc1S(=O)(=O)N1CCOCC1 | inactive |
| Cc1ccc(NC(=O)CC(C)CC(=O)NCc2ccccc2)cc1Cl (configuration not stated) | inactive |
| COC(=O)C(C)Oc1cc(OC(C)C(=O)OC)c2c(-c3ccccc3)cc(=O)oc2c1 (configuration not stated) | inconclusive: 29.1 µM [activator, partial curve, poor fit] |
| CN(C)c1ccc(/C=N/NC(=O)c2sccc2-n2cccc2)cc1 | inconclusive: 3.26 µM [activator, full curve] |
| COCCCn1c(SCc2ccccc2)nc2cc(OC)c(OC)cc2c1=N | active: 16.4 µM |
| CC(C)(C)c1ccc(C(=O)N2CCN(S(=O)(=O)c3ccc(Br)s3)CC2)cc1 | inconclusive: 29.1 µM [inhibitor, single point] |
| CC(C)Oc1cccc(C(=O)C2CCCN(C(=O)c3ccccn3)C2)c1 (configuration not stated) | inconclusive: 32.6 µM [activator, partial curve, poor fit] |
| CC(=O)Nc1ccc(NC(=O)C(C)OC(=O)C(C)SCC(=O)Nc2ccc(F)cc2)cc1 (configuration not stated) | inactive |
| CCOc1ccc(-n2nc3cc(C)c(N)cc3n2)cc1 | inconclusive: 0.58 µM [activator, full curve] |
| Cc1ccccc1C(=O)OC1OC(=O)C(Cl)=C1Nc1ccccc1 (configuration not stated) | inconclusive: 18.3 µM [activator, single point] |
| O=C(COC(=O)c1cc(Cl)nc(Cl)c1)NCc1ccc2c(c1)OCO2 | inactive |
| COc1ccc(C(CNC(=O)COc2cccc(C(F)(F)F)c2)N2CCCC2)cc1 (configuration not stated) | inactive |
| CN(C)c1c(F)cc(-c2nn[nH]n2)cc1F | inconclusive: 18.3 µM [activator, single point] |
| COC(=O)CC1Oc2ccccc2N(Cc2ccccc2)C1=O (configuration not stated) | inconclusive: 29.1 µM [activator, single point] |
| O=C1CN(c2nc(-c3ccccc3)c3ccccc3n2)c2ccccc2N1 | inconclusive: 23.1 µM [inhibitor, partial curve] |
| COc1ccc(OCCn2nnc(-c3ccc(Cl)cc3)n2)cc1 | inconclusive: 23.1 µM [activator, single point] |
| COc1ccccc1-n1c(=O)c2c3c(sc2n2c(SC(C)C)nnc12)CCC3 | inconclusive: 29.1 µM [inhibitor, single point] |
| N#Cc1ccc(OCc2ccc(C(=O)O)o2)cc1 | inactive |
| CCOc1ccccc1NC(=O)C(Sc1nnnn1C)c1ccccc1 (configuration not stated) | inactive |
| COCC(C)n1c(SCC(=O)NNC(=O)c2ccccc2)nc2ccccc2c1=O (configuration not stated) | inconclusive: 16.4 µM [inhibitor, single point] |
| CCOC(=O)C(C(=O)OCC)C(C(=O)OCC)N1CCOCC1 (configuration not stated) | inconclusive: 18.4 µM [inhibitor, single point] |
| O=C(O)C[C@@H]1C(=O)O[C@@H]2C(COC(=O)c3cc(O)c(O)c(O)c3)O[C@@H](OC(=O)c3cc(O)c(O)c(O)c3)[C@@H](OC(=O)c3cc(O)c(O)c4c3[C@H]1[C@H](O)C(=O)O4)[C@H]2OC(=O)c1cc(O)c(O)c(O)c1 (some centres not stated) | inactive |
| CCn1nc(C)c(/C=N/NC(=O)Cc2ccc(Cl)cc2)c1C | inconclusive: 6.51 µM [activator, partial curve] |
| CC(C)(C)c1cc(-n2ccnc2)n2ncc(-c3ccc(Cl)cc3)c2n1 | inconclusive: 18.4 µM [activator, partial curve] |
